Reference: the supplement of paper PMC10735217
“And” between values parts separate entries of the source, which are not always exact repeats. Identical values can stand only once. Counter-ions that a name gives are not always drawn. Some of the results follow. Repeats in this data set agree poorly, so a single value says little.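 Human kidney-derived cells stably carry a construct in which eight TEAD-binding elements drive luciferase, measured by luminescence in a drug-repurposing library screen. A hit is any compound whose signal exceeds the plate mean by more than five robust Z scores.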

Tested on: HEK293A TEAD-LUC reporter
Assay: TEAD-luciferase reporter activity (YAP activation), robust Z score vs plate; higher = stronger YAP/TEAD activation
Settings: 24 h

SMILES	TEAD-luciferase reporter activity (compound concentration: 200 nM)	TEAD-luciferase reporter activity (compound concentration: 2 uM)	TEAD-luciferase reporter activity (compound concentration: 10 uM)
N#Cc1c[nH]cc1-c1cccc2c1OC(F)(F)O2	inactive: -1.2	inactive: -2.41	inactive: -0.278
CC(C)C[C@H](NC(=O)[C@H](CO)NC(=O)CNC(=O)[C@H](CC(C)C)NC(=O)[C@H](CCC(=O)O)NC(=O)[C@H](Cc1ccc(O)cc1)NC(=O)[C@H](CO)NC(=O)[C@H](CC(N)=O)NC(=O)[C@H](Cc1ccccc1)NC(=O)[C@H](CO)NC(=O)[C@@H](N)CSSC[C@H](N)C(=O)N[C@@H](Cc1ccc(O)cc1)C(=O)NCC(=O)N[C@@H](CCCNC(=N)N)C(=O)N[C@@H](CCCCN)C(=O)N[C@@H](CCCCN)C(=O)N[C@@H](CCCNC(=N)N)C(=O)N[C@@H](CCCNC(=N)N)C(=O)N[C@@H](CCC(N)=O)C(=O)N[C@@H](CCCNC(=N)N)C(=O)N[C@@H](CCCNC(=N)N)C(=O)N[C@@H](CCCNC(=N)N)C(=O)O)C(=O)O	inactive: -1.46		inactive: -0.0913
Oc1cccc2cccnc12 [8-Hydroxyquinoline]	inactive: 0.793		inactive: 0.807
Oc1cccc2cccnc12 [Saloxin]		inactive: -0.662	
C[C@]12CC[C@@H]3c4ccc(OC(=O)c5ccccc5)cc4CC[C@H]3[C@@H]1CC[C@@H]2OC(=O)COC(=O)CCCc1ccc(N(CCCl)CCCl)cc1 [Atrimustine]	inactive: -0.751	inactive: -0.178	inactive: -0.301
c1ccc(C2(N3CCCCC3)CCCCC2)cc1 [Phencyclidine hydrochloride]	inactive: -2.41	inactive: -0.891	inactive: -0.994
CC(C)(NC(=O)c1cc2c(n(CC3CCCCC3)c1=O)CCCCCC2)C(=O)N1CCC(NS(C)(=O)=O)CC1 [CB 1/2 dual agonists, Shionogi]	active: 7.33	inactive: -0.251	inactive: 1.26
NC(=O)c1cccc(Cc2c[nH]cn2)c1O	inactive: -1.23	inactive: 1.15	inactive: -0.736
C[C@]12C/C(=C\O)C(=O)CC1CCC1C2CC[C@@]2(C)C1CC[C@]2(C)O (some centres not stated) [oxymetholone, Unimed]	inactive: -0.863		inactive: -0.907
C[C@]12C/C(=C\O)C(=O)CC1CCC1C2CC[C@@]2(C)C1CC[C@]2(C)O (some centres not stated) [oxymetholone]		inactive: -0.627	
O=C1CCC[C@@H]2[C@H]3C[C@@H](CN12)[C@@H]1CCCCN1C3 [Lupanine]	inactive: -0.329	inactive: -1.53	inactive: -1.83
CCOC(=O)c1ncn2c1[C@@H]1CCCN1C(=O)c1cc(OC)ccc1-2	inactive: 0.474	inactive: -1.25	inactive: 0.0541
NCC1(CC(=O)O)CCCCC1 [gabapentin]	inactive: -1.18	inactive: 0.721	inactive: 0.984
CCNC(=O)C[C@@H]1N=C(c2ccc(Cl)cc2)c2cc(OC)ccc2-n2c(C)nnc21	inactive: -0.911	active: 5.35	active: 5.2
C#CC1(OC(=O)CC)CC2CCC3C(CCC4(C)C3CCC4(C#C)OC(=O)CC)C2(C)C1 (configuration not stated) [Anordrin]	inactive: 1.29	inactive: 0.134	inactive: 0.804
CN(C)C(=O)N1CCCC1C(=O)N1CCC(N2Cc3ccccc3C2=O)CC1 (configuration not stated)	active: 6.91		inactive: 3.41
O=C(C[N+]12CC[C@H](CC1)[C@H](C2)OC(=O)C(c1ccccc1)(c1ccccc1)O)Nc1nocc1	inactive: -2.53	inactive: -0.849	inactive: 2.57
COC1(CS(=O)c2ccccc2)CCN(CCc2c[nH]c3ccc(F)cc23)CC1 (configuration not stated)	inactive: 0.302	inactive: -1.59 and inactive: 1.45	inactive: -0.74
Cc1c(N)nc([C@H](CC(N)=O)NC[C@H](N)C(N)=O)nc1C(=O)N[C@H](C(=O)N[C@H](C)[C@@H](O)[C@H](C)C(=O)N[C@H](C(=O)NCCc1nc(-c2nc(C(=O)NCCC[S+](C)C)cs2)cs1)[C@@H](C)O)C(O[C@@H]1O[C@@H](CO)[C@@H](O)[C@H](O)[C@@H]1O[C@H]1O[C@H](CO)[C@@H](O)[C@H](OC(N)=O)[C@@H]1O)c1c[nH]cn1 (some centres not stated) [Bleomycin A2 sulfate]	inactive: -1.07	inactive: -0.751	inactive: 0.949
NC[C@H]1O[C@H](O[C@H]2[C@H](O)[C@@H](O)[C@H](N)C[C@@H]2N)[C@H](N)[C@@H](O)[C@@H]1O [Neamine]	inactive: -1.49	inactive: 0.297	inactive: -0.946
C#CC1(OC(N)=O)CCCCC1	inactive: -0.492	inactive: -0.308	inactive: -0.654
CCC(=O)O[C@H]1CC[C@H]2[C@@H]3CCC4=CC(=O)CCC4(C)[C@H]3CCC12C (some centres not stated) [Testosterone propionate]	inactive: 4.18	inactive: -0.275	inactive: 0.749
CNC(=O)Oc1nc2ccccc2[nH]1 [benzimate]	inactive: -0.256	inactive: 2.99	inactive: 0.233
OCCN1CCCCC1C(c1ccccc1)c1ccccc1 (configuration not stated)	inactive: -1.4	inactive: 0.682	inactive: 1.09
c1ccc(C2CC2)c(OCC2=NCCN2)c1 [cirazoline]		inactive: -1.08	
c1ccc(C2CC2)c(OCC2=NCCN2)c1 [Cirazoline hydrochloride]	inactive: 0.283		inactive: -0.164

SMILES	TEAD-luciferase reporter activity (compound concentration: 200 nM)	TEAD-luciferase reporter activity (compound concentration: 2 uM)	TEAD-luciferase reporter activity (compound concentration: 10 uM)
CCS(=O)(=O)Nc1ccc2c(c1)nc(C(C)(C)C)n2CC1CCC(F)(F)CC1	inactive: -0.995	inactive: -0.758	inactive: 1.27
O=NNc1cnccn1	inactive: 0.35	inactive: -1.3	inactive: -0.908
C1CCC2(CC1)OOC1(O2)C2CC3CC(C2)CC1C3 (configuration not stated)	inactive: 0.492	inactive: -0.171	inactive: 1.38
O=c1[nH]c(CCCN2CC=C(c3ccc(F)cc3)CC2)nc2c(Cl)cccc12	inactive: -1.77	inactive: 0.0989	inactive: -0.201
Cc1ccc(Cn2nc(C(=O)N[C@@H]3C(C)(C)[C@@H]4CC[C@@]3(C)C4)cc2-c2ccc(Cl)c(C)c2)cc1	inactive: 0.0698	inactive: -0.583	inactive: -0.093
O=C(/C=C/c1ccccc1)OCC1OC(O[C@@H]2OC=C[C@H]3[C@H](O)[C@@H]4O[C@]4(CO)[C@@H]23)C(O)C(O)C1O (some centres not stated) [Picroside I]	inactive: -1.09	inactive: -0.0263	inactive: -1.51
NC(=O)c1cc(N2CC2)c([N+](=O)[O-])cc1[N+](=O)[O-] [Tretazicar]		inactive: -2.67	
NC(=O)c1cc(N2CC2)c([N+](=O)[O-])cc1[N+](=O)[O-]	inactive: -0.702		inactive: 2.94
CCOC(=O)CN(CC(=O)Nc1ccc(Cl)cc1C(=O)c1ccccc1)CC(=O)OCC	inactive: 0.259	inactive: -0.358	inactive: 1.44
CC(C)(C)CC(C)(C)c1ccc(O)cc1	inactive: -0.501	inactive: -0.419	inactive: 3.55
CC1(C)[C@H](C=C(Cl)Cl)[C@H]1C(=O)OCc1c(F)c(F)c(F)c(F)c1F [Fenfluthrin]	inactive: 1.2	inactive: 1.21	inactive: 0.386
CCN1CCCC1CNC(=O)C(O)(c1ccccc1)c1ccccc1 (configuration not stated)	inactive: -1.34	inactive: -0.285	inactive: -0.265
CN1C(=O)NC(=O)C(C)(C2=CCCCC2)C1=O (configuration not stated)	inactive: -0.104	inactive: 1.11	inactive: 1.55
C=CCN1C[C@H](C)N([C@@H](c2cccc(O)c2)c2cccc(C(=O)N(C)c3cccc(F)c3)c2)C[C@H]1C	inactive: -0.617	inactive: -0.252	inactive: 0.938
CS(=O)(=O)NCCN1C(=O)NCC12CCN1CCc3c(oc4ccccc34)C1C2 (configuration not stated)	inactive: 0.112	inactive: -1.31	inactive: -1.21
CN(CC1CCCCC1)C1CCc2ccccc2C1 (configuration not stated)	inactive: -0.724		inactive: 1.98
Cc1nc2cc(NC(=O)c3cc4ccncc4n3Cc3cccc(F)c3)ccc2n1C	inactive: 0.797	inactive: 1.06	inactive: 3.69
CCC(O)(COC(N)=O)c1ccccc1 (configuration not stated)	inactive: -0.498	inactive: -0.571	inactive: -0.36
CO[C@]12C[C@@H](COC(=O)c3cncc(Br)c3)CN(C)[C@@H]1Cc1cn(C)c3cccc2c13 [nicergoline SR]		inactive: 0.506	
CO[C@]12C[C@@H](COC(=O)c3cncc(Br)c3)CN(C)[C@@H]1Cc1cn(C)c3cccc2c13 [nicergoline SR, Ethypharm]	inactive: 2.39		inactive: 0.704
CN1C(=O)N(C)C2C1N(C)C(=O)N2C (configuration not stated) [Mebicar]	inactive: -1.67	inactive: 0.187	inactive: -0.584
CCCc1cc2c(s1)CN[C@H]1CCc3cc(O)c(O)cc3[C@H]21	inactive: 1.78	inactive: 0.792	inactive: 0.719
CCC(COC(=O)c1cc(OC)c(OC)c(OC)c1)(c1ccccc1)N(C)C (configuration not stated) [trimebutine, Ahn-Gook Pharmaceutical]		inactive: -1.36	
CCC(COC(=O)c1cc(OC)c(OC)c(OC)c1)(c1ccccc1)N(C)C (configuration not stated)	inactive: 0.209		inactive: 0.653
CCCN1CCC[C@@H](c2cccc(O)c2)C1		inactive: -1.38	
CCCN1CCC[C@@H](c2cccc(O)c2)C1 [(-)-3PPP, Maryland]	inactive: -0.791		inactive: -0.364
